{"source": "patent US4835176A", "about": "“Glycookadaic acid, preparation thereof and use thereof” (priority 1987, dated 1989)", "key": {"[1]": {"system": "lipoprotein lipase (LPL) of 3T3-L1 cells", "assay": "Recovery effect on cachectin/TNF-induced reduction of lipoprotein lipase (LPL) in adipocytes", "assay_type": "cell-based", "conditions": "GOK, rHu-TNF 32 unit/ml, 1200 min", "protocol": "3T3-L1 cells (5×10^4 cells per well) were cultivated in wells of 48-well test plate for about one week until the cell growth reached became confluent. Test drug and 4×10^-10 ^- 10 g/ml (32 unit/ml as TNF activity) of recombinant human TNF (rHu-TNF) were added, and the cultivation was further continued.\nAfter 20 hours, the test drug and rHu-TNF were removed. Then 10 unit/ml of heparin was added, and after 90 min., activity of lipoprotein lipase (LPL) isolated from 3T3-L1 cell by heparin was measured according to the method as described in Nelsson-Ehle, P., et al., J. Lipid Res., 17, 536 (1976).\nOn the LPL activity measured, the recovery on the reduction of lipoprotein lipase production was calculated by the following formula: [formula]\n^1 The experiment was performed in the presence of rHu TNF (32"}, "L 929 cells": {"system": "L 929 cells", "assay": "Effect on cytotoxic activity of TNF", "assay_type": "cell-based", "conditions": "TNF 2 units/ml", "protocol": "L 929 cells (10^4 cells/well) was cultivated on a test plate having 96 wells, and after 24 hours, a test drug and recombinant human-tumor necrosis factor (rHu - TNF) were added thereto such that rHu - TNF became 2.5×10^-11 g/ml (TNF activity of 2 unit/ml), and then, after 24 hours, the number of living cells was measured.\nThe effect of test drug on the cytotoxicity of TNF was calculated according to the above-mentioned formula (A) and shown by \"%\" value.\n^1 The experiments were effected in the presence of TNF (2 units/ml)"}}, "note": "At least one read-out could not be matched to a standard name with certainty."}
{"substance": "glycookadaic acid [GOK]", "values": [{"measurement": "Recovery effect on cachectin/TNF-induced reduction of LPL in adipocytes", "setting": "[1]; Experiment 1, 1.0 μg/ml", "result": 10}, {"measurement": "Recovery effect on cachectin/TNF-induced reduction of LPL in adipocytes", "setting": "[1]; Experiment 1, 3.0 μg/ml", "result": 56}, {"measurement": "Recovery effect on cachectin/TNF-induced reduction of LPL in adipocytes", "setting": "[1]; Experiment 1, 10.0 μg/ml", "result": 38}, {"measurement": "Recovery effect on cachectin/TNF-induced reduction of LPL in adipocytes", "setting": "[1]; Experiment 2, 0.1 μg/ml", "result": 5}, {"measurement": "Recovery effect on cachectin/TNF-induced reduction of LPL in adipocytes", "setting": "[1]; Experiment 2, 1.0 μg/ml", "result": 6}, {"measurement": "Recovery effect on cachectin/TNF-induced reduction of LPL in adipocytes", "setting": "[1]; Experiment 2, 3.0 μg/ml", "result": 18}, {"measurement": "Recovery effect on cachectin/TNF-induced reduction of LPL in adipocytes", "setting": "[1]; Experiment 2, 10.0 μg/ml", "result": 79}, {"measurement": "Recovery effect on cachectin/TNF-induced reduction of LPL in adipocytes", "setting": "[1]; Experiment 2, 30.0 μg/ml", "result": 20}, {"measurement": "Effect of test drug on the cytotoxicity of TNF", "setting": "L 929 cells; 0.01 μg/ml, 1440 min", "result": 3, "unit": "%"}, {"measurement": "Effect of test drug on the cytotoxicity of TNF", "setting": "L 929 cells; 0.1 μg/ml, 1440 min", "result": 1, "unit": "%"}, {"measurement": "Effect of test drug on the cytotoxicity of TNF", "setting": "L 929 cells; 1.0 μg/ml", "result": 3, "unit": "%"}, {"measurement": "Effect of test drug on the cytotoxicity of TNF", "setting": "L 929 cells; 10.0 μg/ml, 1440 min", "result": 15, "unit": "%"}]}
